No constants are given. Whether binding was seen depends on the method and setting. In cells and extracts the contact can be indirect. Some results given as binding are weak or reduced against the parent protein; the word gives no strength.
Target: phosphorylated STAT3 (Tyr 705) (human (endogenous in Caco-2)) (UniProt P40763)
Assay: co-IP; Caco-2 cells (Annexin A2 (+) or control (+)) lysed with Triton X-100; supernatants incubated with anti-p-Anxa 2 (Tyr 23) or anti-p-STAT3 (Tyr 705) at 4°C overnight, protein A-sepharose beads 2 h at 4°C; western blotting

Chains of the proteins cited; added tags and fusions are not shown.
UniProt P40763: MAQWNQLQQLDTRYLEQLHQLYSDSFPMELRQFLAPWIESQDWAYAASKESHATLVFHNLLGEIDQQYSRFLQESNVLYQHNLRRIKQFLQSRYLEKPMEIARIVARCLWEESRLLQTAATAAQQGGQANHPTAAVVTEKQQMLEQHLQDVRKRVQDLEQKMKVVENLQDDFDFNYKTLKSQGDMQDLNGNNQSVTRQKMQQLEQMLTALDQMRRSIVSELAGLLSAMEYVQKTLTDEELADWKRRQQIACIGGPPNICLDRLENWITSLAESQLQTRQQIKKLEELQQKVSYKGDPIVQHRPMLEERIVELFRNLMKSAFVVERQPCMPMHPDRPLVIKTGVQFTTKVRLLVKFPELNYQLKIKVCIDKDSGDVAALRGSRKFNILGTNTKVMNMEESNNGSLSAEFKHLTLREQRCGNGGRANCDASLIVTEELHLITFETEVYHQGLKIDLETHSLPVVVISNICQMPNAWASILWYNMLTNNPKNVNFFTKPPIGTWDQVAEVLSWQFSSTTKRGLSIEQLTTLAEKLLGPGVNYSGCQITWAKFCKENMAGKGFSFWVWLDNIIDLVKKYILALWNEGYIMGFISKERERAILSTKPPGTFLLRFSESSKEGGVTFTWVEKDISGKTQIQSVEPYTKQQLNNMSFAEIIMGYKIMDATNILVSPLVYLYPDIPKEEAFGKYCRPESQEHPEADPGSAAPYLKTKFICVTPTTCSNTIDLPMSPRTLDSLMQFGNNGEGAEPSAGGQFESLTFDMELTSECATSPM
UniProt P07355: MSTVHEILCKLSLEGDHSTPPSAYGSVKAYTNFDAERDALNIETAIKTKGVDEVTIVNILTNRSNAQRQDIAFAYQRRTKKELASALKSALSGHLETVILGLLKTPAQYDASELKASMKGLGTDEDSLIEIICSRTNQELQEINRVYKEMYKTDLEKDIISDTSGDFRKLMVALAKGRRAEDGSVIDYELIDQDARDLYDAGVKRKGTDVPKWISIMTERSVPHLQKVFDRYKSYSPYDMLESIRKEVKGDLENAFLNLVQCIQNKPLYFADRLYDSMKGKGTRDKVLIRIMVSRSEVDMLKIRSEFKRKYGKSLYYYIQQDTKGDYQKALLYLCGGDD

binding: binds
Substance: phosphorylated Annexin A2 (Tyr 23) (from UniProt P07355 1-339)
